Data source: PubChem BioAssay AID1259424 (University of Nebraska Medical Center, 2018)

Screen: 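Find knockdowns that reproduce the expression shifts seen after KSR1 loss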 (primary screen)
Cells: human HCT116 colon cancer cells
Knock-down reagent: siRNA pool against human genes, 50 nM
Measured: 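Six signature mRNAs by branched-DNA multiplex assay, scaled to two housekeeping genes and non-targeting median, log2; matched to mean KSR1 knockdown profile by Pearson correlation and euclidean distance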
Reading the numbers: mean correlation with KSR1 profile: higher = expression change more like KSR1 knockdown; mean distance from KSR1 profile: higher = expression change less like KSR1 knockdown
This is one part, drawn at random, of about 14,000 reagents tested. 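Higher correlation or smaller distance means closer resemblance to KSR1 loss; control wells, including KSR1 knockdowns, recur on many plates.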 Not all columns of the deposit are shown. Not stated in the record: the time to read-out.

DDX56
- mean correlation with KSR1 profile: 0.432
- mean distance from KSR1 profile: 4.26

FAM222A
- mean correlation with KSR1 profile: 0.619
- mean distance from KSR1 profile: 2.26

DDX49
- mean correlation with KSR1 profile: -0.249
- mean distance from KSR1 profile: 2.15

ROR2
- mean correlation with KSR1 profile: -0.158
- mean distance from KSR1 profile: 2.07

NRP1
- mean correlation with KSR1 profile: 0.857
- mean distance from KSR1 profile: 1.61

SOS1
- mean correlation with KSR1 profile: -0.506
- mean distance from KSR1 profile: 4.67

NF2
- mean correlation with KSR1 profile: -0.299
- mean distance from KSR1 profile: 2.52

CPD
- mean correlation with KSR1 profile: -0.0536
- mean distance from KSR1 profile: 3.56

RAB5A
- mean correlation with KSR1 profile: -0.194
- mean distance from KSR1 profile: 2.4

KIF25-AS1
- mean correlation with KSR1 profile: -0.227
- mean distance from KSR1 profile: 1.94

COL11A1
- mean correlation with KSR1 profile: 0.0248
- mean distance from KSR1 profile: 2.7

ANKRD36B
- mean correlation with KSR1 profile: -0.0452
- mean distance from KSR1 profile: 1.31

Next part, starting with the last 4 of the part before.
RAB5A
- mean correlation with KSR1 profile: -0.194
- mean distance from KSR1 profile: 2.4

KIF25-AS1
- mean correlation with KSR1 profile: -0.227
- mean distance from KSR1 profile: 1.94

COL11A1
- mean correlation with KSR1 profile: 0.0248
- mean distance from KSR1 profile: 2.7

ANKRD36B
- mean correlation with KSR1 profile: -0.0452
- mean distance from KSR1 profile: 1.31

GCKR
- mean correlation with KSR1 profile: 0.482
- mean distance from KSR1 profile: 2.24

NBN
- mean correlation with KSR1 profile: 0.52
- mean distance from KSR1 profile: 1.76

USP18
- mean correlation with KSR1 profile: 0.321
- mean distance from KSR1 profile: 1.66

NCEH1
- mean correlation with KSR1 profile: 0.519
- mean distance from KSR1 profile: 1.14

GM2A
- mean correlation with KSR1 profile: -0.841
- mean distance from KSR1 profile: 2.33

FRMPD4
- mean correlation with KSR1 profile: -0.698
- mean distance from KSR1 profile: 2.29

RIMBP3
- mean correlation with KSR1 profile: 0.561
- mean distance from KSR1 profile: 2.1

RRP1
- mean correlation with KSR1 profile: -0.426
- mean distance from KSR1 profile: 2.33

MSANTD4
- mean correlation with KSR1 profile: 0.384
- mean distance from KSR1 profile: 1.8

URM1
- mean correlation with KSR1 profile: 0.435
- mean distance from KSR1 profile: 1.79

RFC2
- mean correlation with KSR1 profile: 0.213
- mean distance from KSR1 profile: 2.15

PLA2G2E
- mean correlation with KSR1 profile: 0.288
- mean distance from KSR1 profile: 2.25

PEX5L
- mean correlation with KSR1 profile: -0.361
- mean distance from KSR1 profile: 3.29

KDELR1
- mean correlation with KSR1 profile: -0.226
- mean distance from KSR1 profile: 1.85

MT3
- mean correlation with KSR1 profile: -0.338
- mean distance from KSR1 profile: 1.65

TRIM55
- mean correlation with KSR1 profile: 0.0541
- mean distance from KSR1 profile: 3.09
